From patent publication EP4008330A1, “COMBINED INHIBITION OF AMINO ACID TRANSPORTERS FOR INHIBITING HUMAN PLASMACYTOID DENDRITIC CELL ACTIVITY DURING AUTOIMMUNITY” (Max-Planck-Gesellschaft zur Förderung der Wissenschaften …, priority 2020, dated 2022)
At least one structure is not confirmed: it was looked up by name or label, or the drawing left a doubt.

Sequences of proteins named here, by UniProt entry; tags and fusion partners are left off. A change or cut given only in a name is not applied to a line headed by its entry.
UniProt Q01650: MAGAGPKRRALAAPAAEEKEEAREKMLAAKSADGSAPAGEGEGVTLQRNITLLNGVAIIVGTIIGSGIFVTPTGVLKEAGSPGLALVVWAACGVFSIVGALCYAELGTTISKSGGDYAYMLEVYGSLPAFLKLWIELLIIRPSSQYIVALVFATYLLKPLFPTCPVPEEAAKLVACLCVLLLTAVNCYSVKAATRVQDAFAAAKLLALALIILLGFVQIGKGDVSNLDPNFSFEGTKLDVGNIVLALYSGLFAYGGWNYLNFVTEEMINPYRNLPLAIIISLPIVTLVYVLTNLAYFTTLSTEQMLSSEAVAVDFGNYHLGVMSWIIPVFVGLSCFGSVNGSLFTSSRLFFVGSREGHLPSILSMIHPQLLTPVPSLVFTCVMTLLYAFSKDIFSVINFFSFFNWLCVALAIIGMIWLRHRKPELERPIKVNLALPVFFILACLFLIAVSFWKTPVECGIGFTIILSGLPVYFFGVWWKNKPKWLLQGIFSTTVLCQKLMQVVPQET

Columns and labels:
mTORC1 = test: S6 (S235/236) phosphorylation in pDC by flow cytometry, as measure of mTORC1 activity; assay type: cell-based, human; conditions: pDC in IL-3 with inhibitor, stimulated with CpG-A; 20 nM RAP, 1µM AZD, BAR
Protocol: (§1) Cells were stimulated with 5 µM CpG-A ODN (ODN2216, InvivoGen) for times indicated.
(§2) Isolated pDC staining was performed in 0.5% BSA in PBS for 10 min at RT, dead cells were excluded with the LIVE/DEAD Fixable Near-IR or Aqua Dead Cell Stain Kits (Thermo scientific). Unspecific binding was blocked with FcR blocking reagent (Miltenyi). The following fluorochrome-conjugated Abs were used for intracellular staining: IFNα (Miltenyi, LT27:295), TNFα (BioLegend, clone Mab11), pS6(S235/236; CST, clone D57.2.2e), pSTAT5 (Y694; CST, clone C71E5). After surface staining, cells were fixed using Fixation/Permeabilization Kit (BD Bioscience) for 20 min at 4°C, and then additionally permeabilized in Perm/Wash solution for 30 min at 4°C, after which cells were incubated with antibodies against intracellular proteins, at previously determined antibody dilutions, for 30 min at RT. […] Cycloheximide (Sigma) at 100 µg/ml was used as a positive control for protein synthesis inhibition.

pDC [1] = test: Intracellular IFNα and TNFα production by CpG-A-stimulated isolated pDC (flow cytometry); assay type: cell-based, human
Text: PBMC from buffy coats from healthy blood donors were isolated by density gradient centrifugation using SepMate tubes and Lymphoprep (both […] Technologies). pDC were negatively selected from PBMC using the plasmacytoid dendritic cell isolation kit II (Miltenyi Biotec). Buffy coats were kindly provided by the Institute for Transfusion Medicine and Gene Therapy, Medical Center - University of Freiburg (donor consent, anonymized). Skin samples of lupus patients were obtained through the biobank of the SFB829 (Z4 project) with informed consent from all the subjects and ethical approval obtained from the Ethics Committee at the University of Cologne (votes 12-163 and 19-1146). SLE PBMC were provided by ImmRheum biobank in Freiburg, a project that was approved by the local ethical committee (votes 507/16 and 624/14). All patients who provided blood to the biobank had provided written informed consent.
as §1
as §2, with “The following fluorochrome-conjugated monoclonal antibodies were used for staining cell surface markers: IL-3Ra (CD123) (Miltenyi Biotec, clone AC145), HLA-DR (BD Bioscience, clone G46-6), CD116 (BD Bioscience, clone hGMCSFR-M1), CD4 (Biolegend, clone A161A1). […] Isolated” for “Isolated”

[2] = biological target: T1, System LAA transporters SLC7A5 and SLC3A2 (Homo sapiens, UniProt Q01650); test: Kynurenine uptake by pDC (flow cytometry), System LAA transporter activity; assay type: cell-based; conditions: cultured pDC +/- IL-3, +/- CpG-A; 200 µM kynurenine 4 min; 10 mM BCH at time of uptake
T1 construct: freshly isolated pDC from PBMC of healthy donors and SLE patients also expressed System LAA transporters SLC7A5 and SLC3A2; endogenous in cells; host or cells: Primary plasmacytoid dendritic cells isolated from PBMC of human donors
Protocol: (§3) Briefly, stained cells were incubated in HBSS (Gibco) with 200 µM kynurenine (Sigma) for 4 min at 37°C.
To assess whether IL-3-induced expression of SLC7A5 and SLC3A2 allowed the assembly of a functional System LAA transporter, we used a flow cytometry-based assay that measures the ability of cells to take up kynurenine, a naturally fluorescing molecule that is transported into cells via SLC7A5; this can be used as a proxy measurement of large neutral amino acid (LNAA) uptake. […] Of interest, freshly isolated pDC from PBMC of healthy donors and SLE patients also expressed System LAA transporters SLC7A5 and SLC3A2 (Figure 5D) and furthermore pDC from healthy donors had the ability to take up kynurenine immediately ex vivo, a process that was blocked by BCH (Figure 5E).

STAT5 (Y694) = STAT5 (Y694) phosphorylation in pDC by flow cytometry; assay type: cell-based, human; conditions: IL-3-induced; pDC with inhibitor o/n
Protocol: as §1, §2

SLC7A11 = SLC7A11 mRNA expression in pDC (PrimeFlow RNA); assay type: cell-based, human; conditions: pDC in IL-3 and inhibitor o/n, then CpG-A 5h (Figure 12B)
Protocol: as §1, §3

SLC7A5 and SLC3A2 = SLC7A5 and SLC3A2 mRNA expression in pDC (PrimeFlow RNA); conditions: pDC in IL-3 and inhibitor o/n, then CpG-A 5h
pDC [3] = test: Combined kynurenine uptake and pS6 (S235/236) in pDC (double positive cells); assay type: cell-based, human; conditions: pDC in IL-3 and inhibitor o/n, then CpG-A 5h
pDC [4] = test: De novo protein synthesis in pDC, incorporation of puromycin analogue (OPP); assay type: cell-based, human; conditions: pDC in IL-3, CpG-A for 10 h and inhibitor
pDC [5] = test: Lactate levels in pDC culture medium (Cedex Bio Analyzer); assay type: cell-based, human; conditions: pDC in IL-3, CpG-A and inhibitor for 10 h
Protocol: as §1
Glucose and lactate were measured in cell culture supernatants using the Cedex Bio Analyzer (Roche) and data presented as mmol/L.

[6] = pDC in IL-3 and inhibitor o/n, then CpG-A 5h, 20 nM RAP, 250 nM TOR, 10µM HPA, 1µM AZD, BAR, 5 µM ERA, 100 or 200 µM SAZ
[7] = pDC in IL-3 and inhibitor o/n, then CpG-A 5h, 20 nM RAP, 10µM HPA, 1µM AZD, BAR, 5 µM ERA, 100 or 200 µM SAZ

With `CCS(=O)(=O)N1CC(CC#N)(n2cc(-c3ncnc4[nH]ccc34)cn2)C1` [BAR, baricitinib] the “pS6 (S235/236) expression” value (mTORC1) was “reductions”, the IFNα production (pDC [1]; in vitro dose escalation, BAR 25 to 100 nM, alone or with SAZ, IL-3 o/n, then CpG-A 5h (Figure 14A)) was “declined” and the TNFα production (pDC [1]; in vitro dose escalation, BAR 25 to 100 nM, alone or with SAZ, IL-3 o/n, then CpG-A 5h (Figure 14B)) was “declined”. For the same compound, the IFNα production (pDC [1]; [6]) was “lost and decrease”, the TNFα production (pDC [1]; [7]) was “decrease” and the kynurenine uptake [2] was “reductions”. The “pSTAT5 (Y694) expression” value (STAT5 (Y694)) was “inhibited”, the “SLC7A11 and SLC7A5 mRNA expression (double positive cells)” value (SLC7A11) was “lost expression of both transporters” and the “SLC7A5 and SLC3A2 mRNA expression” value (SLC7A5 and SLC3A2) was “significantly inhibited”.

With `CCOc1ccccc1-n1c(C(C)N2CCN(C(=O)COc3ccc(Cl)cc3)CC2)nc2ccccc2c1=O` (stereo not drawn) [ERA, erastin] the “kynurenine uptake and pS6 (S235/236) expression (cells positive for both)” value (pDC [3]) was “reductions”.

For `CO[C@H]1C[C@@H]2CC[C@@H](C)[C@@](O)(O2)C(=O)C(=O)N2CCCC[C@H]2C(=O)O[C@H]([C@H](C)C[C@@H]2CC[C@@H](O)[C@H](OC)C2)CC(=O)[C@H](C)/C=C(\C)[C@@H](O)[C@@H](OC)C(=O)[C@H](C)C[C@H](C)/C=C/C=C/C=C/1C` [RAP, rapamycin], the IFNα production (pDC [1]; [6]) was “partially inhibit”, the TNFα production (pDC [1]; [7]) was “partially inhibit” and the “protein synthesis measured by incorporation of puromycin analogue (OPP)” value (pDC [4]) was “prevented”. For the same compound, the “lactate levels in medium” value (pDC [5]) was “decline in CpG-A-induced lactate release” and the kynurenine uptake [2] was “but not kynurenine uptake”.
